# From article PMC6731061
# Chains of the proteins cited; added tags and fusions are not shown. Residues count along the entry.
# UniProt Q06685, residues 188-1088: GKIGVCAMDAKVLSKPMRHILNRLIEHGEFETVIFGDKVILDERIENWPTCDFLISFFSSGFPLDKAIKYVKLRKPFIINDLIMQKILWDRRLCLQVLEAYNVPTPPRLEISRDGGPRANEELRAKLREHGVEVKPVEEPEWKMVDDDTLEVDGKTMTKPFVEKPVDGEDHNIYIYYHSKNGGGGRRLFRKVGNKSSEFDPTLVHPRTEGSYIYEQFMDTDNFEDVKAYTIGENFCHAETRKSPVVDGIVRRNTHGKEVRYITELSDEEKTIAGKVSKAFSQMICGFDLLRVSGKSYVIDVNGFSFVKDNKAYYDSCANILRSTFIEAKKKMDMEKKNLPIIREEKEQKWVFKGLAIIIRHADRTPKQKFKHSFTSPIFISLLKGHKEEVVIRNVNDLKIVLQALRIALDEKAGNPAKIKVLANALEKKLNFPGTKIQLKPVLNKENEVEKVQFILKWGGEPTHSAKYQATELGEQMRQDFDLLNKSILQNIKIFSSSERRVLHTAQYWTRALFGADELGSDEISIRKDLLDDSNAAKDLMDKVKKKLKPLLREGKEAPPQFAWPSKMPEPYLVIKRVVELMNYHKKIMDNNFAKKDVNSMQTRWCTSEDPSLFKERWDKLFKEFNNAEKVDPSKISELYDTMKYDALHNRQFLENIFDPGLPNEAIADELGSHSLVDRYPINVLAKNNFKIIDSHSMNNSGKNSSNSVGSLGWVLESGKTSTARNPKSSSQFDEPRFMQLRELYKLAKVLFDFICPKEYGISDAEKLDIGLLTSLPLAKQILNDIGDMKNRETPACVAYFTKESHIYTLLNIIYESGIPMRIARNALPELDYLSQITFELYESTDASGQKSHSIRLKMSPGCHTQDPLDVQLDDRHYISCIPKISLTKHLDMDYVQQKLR
# Results are given in words; binding and its absence hold for the method and conditions named.
# Molecular target: Saccharomyces cerevisiae Vip1 (residues 188-1088) (S. cerevisiae) (UniProt Q06685)
# Experiment: SEC; Superdex 200 column (HiLoad 26/600 or increase 10/300 GL), 150 mM NaCl, 20 mM HEPES pH 7.0; both purified
substance,measurement,value
Saccharomyces cerevisiae Vip1 (residues 188-1088) (from UniProt Q06685 188-1088) (enzyme),binding,no binding
